Measurements reported in article PMC8529501 (iScience, 2021).

How the values were obtained:
FKBP12-C-Luc-K45Q = FKBP12-C-Luc-K45Q (UniProt P62942); assay: split reporter; split luciferase: FKBP12 fused to C-Luc, FRB or Rheb fused to N-Luc, cotransfected in HEK293T; rapamycin treatment for 6 h; with or without TSA or NAM pretreatment for 2 h; luciferase activity
FKBP12-C-Luc-K45R = FKBP12-C-Luc-K45R (UniProt P62942); assay: as above

Rheb-N-Luc (from UniProt Q15382 1-184)
binding (FKBP12-C-Luc-K45Q): binds
binding (FKBP12-C-Luc-K45R): binds

No constants are given. Whether binding was seen depends on the method and setting. Binding seen in cells or lysates may run through a third protein. A result given as binding can be weak or reduced; the word gives no strength.
